Results are given in words; binding and its absence hold for the method and conditions named. For some assays here: Binding seen in cells or lysates may run through a third protein. Some binding calls cover weakened binding; strength is not graded here. Sequences can lack the tags named with a protein.
Tests used:
[1] = target: T1, eGFP-FKBP-Kif9 (relocalizable form of Kif9) (human) (UniProt Q9HAQ2); test: knock-sideways relocalisation
T1 sequence: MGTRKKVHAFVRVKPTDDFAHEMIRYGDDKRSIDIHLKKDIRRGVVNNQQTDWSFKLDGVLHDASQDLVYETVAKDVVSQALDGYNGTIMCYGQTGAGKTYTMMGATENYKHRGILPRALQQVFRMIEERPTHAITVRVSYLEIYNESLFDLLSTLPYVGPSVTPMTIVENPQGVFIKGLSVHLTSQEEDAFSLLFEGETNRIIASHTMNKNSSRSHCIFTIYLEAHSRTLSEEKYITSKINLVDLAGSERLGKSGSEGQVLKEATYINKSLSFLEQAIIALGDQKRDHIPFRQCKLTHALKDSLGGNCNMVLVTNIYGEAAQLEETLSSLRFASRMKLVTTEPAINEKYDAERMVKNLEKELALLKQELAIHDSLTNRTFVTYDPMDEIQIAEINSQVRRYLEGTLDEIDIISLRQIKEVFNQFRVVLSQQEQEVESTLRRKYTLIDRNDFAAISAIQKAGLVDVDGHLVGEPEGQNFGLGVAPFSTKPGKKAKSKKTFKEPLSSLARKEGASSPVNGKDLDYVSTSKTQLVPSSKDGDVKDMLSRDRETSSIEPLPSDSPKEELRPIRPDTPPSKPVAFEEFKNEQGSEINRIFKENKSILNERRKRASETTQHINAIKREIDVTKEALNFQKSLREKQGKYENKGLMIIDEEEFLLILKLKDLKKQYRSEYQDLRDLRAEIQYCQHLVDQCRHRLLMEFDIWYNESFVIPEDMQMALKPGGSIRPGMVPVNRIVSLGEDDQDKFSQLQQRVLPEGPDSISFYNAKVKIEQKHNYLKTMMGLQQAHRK

The chains behind the UniProt entries cited, without tags or fusion partners.
UniProt Q15154: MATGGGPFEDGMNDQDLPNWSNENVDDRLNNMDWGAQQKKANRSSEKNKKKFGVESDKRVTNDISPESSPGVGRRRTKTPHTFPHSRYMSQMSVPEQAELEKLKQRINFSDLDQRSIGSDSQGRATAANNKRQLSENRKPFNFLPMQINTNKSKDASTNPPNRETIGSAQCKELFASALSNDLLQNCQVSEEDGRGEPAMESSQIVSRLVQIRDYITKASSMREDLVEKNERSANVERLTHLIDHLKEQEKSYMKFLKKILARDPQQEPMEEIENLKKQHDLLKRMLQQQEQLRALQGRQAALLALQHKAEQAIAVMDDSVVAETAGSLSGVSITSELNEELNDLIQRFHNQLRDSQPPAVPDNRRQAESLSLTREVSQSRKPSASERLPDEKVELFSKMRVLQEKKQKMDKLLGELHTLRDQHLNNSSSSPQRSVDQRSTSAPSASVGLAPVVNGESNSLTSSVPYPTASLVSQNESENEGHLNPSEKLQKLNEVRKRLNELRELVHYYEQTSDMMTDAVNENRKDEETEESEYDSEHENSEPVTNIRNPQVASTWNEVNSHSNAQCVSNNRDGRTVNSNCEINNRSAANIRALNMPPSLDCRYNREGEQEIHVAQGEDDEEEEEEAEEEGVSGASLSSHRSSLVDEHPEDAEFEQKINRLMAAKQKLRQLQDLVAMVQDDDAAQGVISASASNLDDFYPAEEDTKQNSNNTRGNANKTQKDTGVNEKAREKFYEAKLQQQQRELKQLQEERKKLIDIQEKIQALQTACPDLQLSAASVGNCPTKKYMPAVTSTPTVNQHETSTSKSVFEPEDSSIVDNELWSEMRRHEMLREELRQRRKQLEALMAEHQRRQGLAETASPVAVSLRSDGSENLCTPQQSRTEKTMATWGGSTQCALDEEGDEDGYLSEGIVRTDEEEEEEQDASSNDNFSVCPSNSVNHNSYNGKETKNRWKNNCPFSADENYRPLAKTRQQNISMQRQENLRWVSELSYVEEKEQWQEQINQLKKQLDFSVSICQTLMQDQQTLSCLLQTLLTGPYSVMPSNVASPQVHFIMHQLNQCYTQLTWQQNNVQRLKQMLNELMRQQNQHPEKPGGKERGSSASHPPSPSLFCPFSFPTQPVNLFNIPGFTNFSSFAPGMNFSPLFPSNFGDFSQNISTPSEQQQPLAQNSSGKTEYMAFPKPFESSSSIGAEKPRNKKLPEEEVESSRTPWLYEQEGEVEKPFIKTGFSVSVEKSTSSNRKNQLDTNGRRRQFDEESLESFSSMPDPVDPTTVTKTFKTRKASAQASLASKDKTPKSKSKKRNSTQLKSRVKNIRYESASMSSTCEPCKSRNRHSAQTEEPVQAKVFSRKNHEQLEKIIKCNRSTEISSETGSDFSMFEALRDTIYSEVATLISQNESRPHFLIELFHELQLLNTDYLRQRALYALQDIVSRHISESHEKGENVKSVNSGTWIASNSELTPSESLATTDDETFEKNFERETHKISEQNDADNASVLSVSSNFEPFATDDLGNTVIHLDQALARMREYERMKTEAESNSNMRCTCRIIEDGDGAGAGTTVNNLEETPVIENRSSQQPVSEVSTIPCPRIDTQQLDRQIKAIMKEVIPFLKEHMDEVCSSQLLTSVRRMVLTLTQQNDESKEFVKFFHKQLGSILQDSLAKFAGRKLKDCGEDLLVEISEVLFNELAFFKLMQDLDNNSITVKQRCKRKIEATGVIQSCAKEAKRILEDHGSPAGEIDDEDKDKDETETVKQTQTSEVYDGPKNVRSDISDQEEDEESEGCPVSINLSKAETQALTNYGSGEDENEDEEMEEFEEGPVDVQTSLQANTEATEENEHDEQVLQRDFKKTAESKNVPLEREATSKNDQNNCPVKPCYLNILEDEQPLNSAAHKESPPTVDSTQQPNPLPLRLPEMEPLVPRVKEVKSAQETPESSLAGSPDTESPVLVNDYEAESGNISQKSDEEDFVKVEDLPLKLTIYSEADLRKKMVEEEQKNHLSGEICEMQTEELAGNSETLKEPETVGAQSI

[2] = target: T2, eGFP-Kif9 (HeLa cells transfected with the eGFP-Kif9 plasmid) (human) (UniProt Q9HAQ2); test: co-IP
T2 sequence: T1 sequence

binding [1]: binds
binding [2]: binds
Substance: PCM1 (endogenous, HeLa) (from UniProt Q15154 1-2024)

— paper doi:10.1101/2024.04.03.587821
